# Laboratory results taken from patent publication US9061003B2, “Therapeutic or preventive agent for diabetes” (NITTA GELATIN INC., priority 2011, dated 2015).
# Sequences of proteins named here, by UniProt entry; tags and fusion partners are left off.
# UniProt P27487, whole entry: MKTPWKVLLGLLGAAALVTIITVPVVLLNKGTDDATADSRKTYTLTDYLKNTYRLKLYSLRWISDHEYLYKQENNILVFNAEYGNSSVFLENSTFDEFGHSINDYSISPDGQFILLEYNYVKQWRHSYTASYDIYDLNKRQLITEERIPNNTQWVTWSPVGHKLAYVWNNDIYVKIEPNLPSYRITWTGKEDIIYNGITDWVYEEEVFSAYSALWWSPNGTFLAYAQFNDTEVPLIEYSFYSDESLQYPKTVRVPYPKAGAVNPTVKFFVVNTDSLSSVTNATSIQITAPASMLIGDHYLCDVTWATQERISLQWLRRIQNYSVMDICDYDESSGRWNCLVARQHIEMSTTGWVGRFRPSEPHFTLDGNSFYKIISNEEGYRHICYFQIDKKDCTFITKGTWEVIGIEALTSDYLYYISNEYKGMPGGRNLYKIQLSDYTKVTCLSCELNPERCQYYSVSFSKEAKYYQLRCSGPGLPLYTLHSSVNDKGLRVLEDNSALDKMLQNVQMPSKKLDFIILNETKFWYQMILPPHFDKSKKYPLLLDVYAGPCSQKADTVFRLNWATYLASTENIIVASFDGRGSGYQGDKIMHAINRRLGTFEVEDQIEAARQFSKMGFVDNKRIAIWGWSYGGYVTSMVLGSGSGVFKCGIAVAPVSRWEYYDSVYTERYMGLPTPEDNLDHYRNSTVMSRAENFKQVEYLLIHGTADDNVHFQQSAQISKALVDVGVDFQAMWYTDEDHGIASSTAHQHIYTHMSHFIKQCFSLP
# At least one peptide structure holds a part that was inferred or is arguable (an end, a ring closure or a residue). Square brackets hold non-standard residues; d marks the D form. Peptide text beside a SMILES is read from it. Hyp = O=C(O)[C@@H]1C[C@@H](O)CN1
# Legend:
# [1] = molecular target: T1, DPPIV enzyme; human recombinant (Homo sapiens, UniProt P27487); assay: DPPIV inhibitory activity (DPPIV Drug Discovery Kit-AK-499, H-Gly-Pro-AMC substrate); assay type: biochemical; details: discussion of results
# T1 construct: purchased BIOMOL E434-9090 (kit AK-499)
# Method: DPPIV inhibitory activity was determined by using a DPPIV inhibitory activity measuring kit “DPPIV Drug Discovery Kit-AK-499” (manufactured by BIOMOL). […] Inhibitory activity was evaluated by the concentration at which 50% of DPPIV activity was inhibited.
# [2] = test system: Human-derived intestinal tract L cells (NCI-H716 cell); assay type: cell-based; details: discussion of results
# Method: Human-derived intestinal tract L cells (NCI-H716 cell: manufactured by ATCC) were inoculated at 5×10^5 cells/mL×200 μL (1×10^5 cells/well) in a RPIM medium containing 10% FBS (manufactured by ATCC) on a Pre-coated poly-L-lysin plate (96 wells plate) and cultured for 2 days. After confirming that the cells were adhered to the plate, the medium was replaced by a test medium (146 mM NaCl, 5 mM KCl, 1.5 mM CaCl2, 1 mM MgSO4, 20 mM HEPES, 5.6 mM glucose, 2 mg/mL BSA) and a sample was added at a final concentration of 5 mM. A culture supernatant after 1 hour was 30-fold diluted with PBS, and tested with GLP-1 ELISA kit (manufactured by Levis) according to the protocol.
# Based on GLP-1 secretion in the case not added with the sample (Blank) as 100%, a GLP-1 secretion accelerating percentage in the fraction added with 5 mM sample was calculated.
compound,measurement,setting,value
"C[C@H](N)C(=O)N1C[C@H](O)C[C@H]1C(=O)O [AO, Ala-Hyp] (H-Ala-[Hyp]-OH; N-terminus and C-terminus assumed)",DPPIV inhibitory activity (in words),[1],have DPPIV inhibitory activity
same,GLP-1 secretion accelerating activity (in words),[2],have GLP-1 secretion accelerating activity
